Reference: PMC7819943, “Rice protein-binding microarrays: a tool to detect cis-acting elements near promoter regions in rice”
The list shows a part of the results.

The chains behind the UniProt entries cited, without tags or fusion partners.
UniProt Q0JBA9, entry or part of it: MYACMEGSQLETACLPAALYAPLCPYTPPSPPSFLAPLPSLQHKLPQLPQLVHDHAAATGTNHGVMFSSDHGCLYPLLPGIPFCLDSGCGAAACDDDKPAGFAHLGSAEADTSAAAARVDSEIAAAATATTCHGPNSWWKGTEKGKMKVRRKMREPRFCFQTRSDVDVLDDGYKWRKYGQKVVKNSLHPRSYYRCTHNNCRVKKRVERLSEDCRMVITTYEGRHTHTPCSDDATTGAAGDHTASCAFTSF

These sequences were tested against OsWRKY34 (Oryza sativa, UniProt Q0JBA9 1-250) (assay: protein-binding microarray (RPBM); PBS, 2% BSA, 51.3 ng/ul salmon testes DNA, 50 uM zinc acetate, 200 nM TF, 25 C, 1 h; high values mean tight binding). Conditions: protein: recombinant; tags: N-terminal polyhistidine and DsRed monomer fusion (pET32a); label: CyDye5-dUTP incorporated in the synthesized complementary strand; 3' TTTTT single-stranded linker to array surface; dsDNA, one strand shown.
Outline: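 For the binding signal, per-feature fluorescence intensity was read in arbitrary units on an Axon 4000B scanner. Before scanning, a 2% BSA-blocked custom Agilent array made double-stranded with Cy5-dUTP was washed after 1 h at 25 °C with 200 nM protein and 50 µM zinc acetate. The proteins were Ni–NTA-purified transcription factors with N-terminal polyhistidine and DsRed fusions, expressed in E. coli BL21-CodonPlus.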

Row | Sequence | binding signal
1 | CTGCTTCGCCTCTCGTTCCCCAAGGCCCCGAAGCCGCCGGCGGAGTCACCTAGTGCAG | 8350 fluorescence intensity (a.u.)
2 | CGGAACTAACTTTTTCACTATGGCATTTTTTTTTTCTTGTCGGAGTCACCTAGTGCAG | 8700 fluorescence intensity (a.u.)
3 | GCGGGAGGGTAACAAGGCGGCGGCGGGTGCGCGCTCGCCTCGGAGTCACCTAGTGCAG | 9310 fluorescence intensity (a.u.)
4 | ATCAATTCTATTCTCTCTGTGACCCAGGTAATTGCTGCTGCGGAGTCACCTAGTGCAG | 10500 fluorescence intensity (a.u.)
5 | CAAAACCACGGAGATAACCAGATAATCCTCGCACATCTCGCGGAGTCACCTAGTGCAG | 8030 fluorescence intensity (a.u.)
6 | TGCAGTAGTTGATGTGTGGTGTGTGTCAGATAAATCTGATCGGAGTCACCTAGTGCAG | 9260 fluorescence intensity (a.u.)
7 | CTCTTTATATTATTGTGCGAATTCAGTTCACCTTTACTACCGGAGTCACCTAGTGCAG | 8170 fluorescence intensity (a.u.)
8 | GCGGTTTCCTAGTTGACTGACCAAACAATTCATATATATTCGGAGTCACCTAGTGCAG | 8740 fluorescence intensity (a.u.)
9 | AGGAATTGGTGGATGCGGTGAGGGGCTACGGGGTGGAAGACGGAGTCACCTAGTGCAG | 11100 fluorescence intensity (a.u.)
10 | GCCGACAAGAACCGCCCCTACATTGACTCGGCTTTGCCCTCGGAGTCACCTAGTGCAG | 8250 fluorescence intensity (a.u.)
11 | GGAGTGTTTCTGTTGTTGCATGTGATGAGTGCATTATCATCGGAGTCACCTAGTGCAG | 11000 fluorescence intensity (a.u.)
12 | CTTCACGCTCTCCACTCCGCTCGGTGCCCGATCTGGTTCGCGGAGTCACCTAGTGCAG | 8780 fluorescence intensity (a.u.)
13 | CGCTATAATATAAGTACTGTTGGATTTTTGTTTTTCTTTTCGGAGTCACCTAGTGCAG | 8100 fluorescence intensity (a.u.)
14 | GATATTTGTTTATATTAGAAGTTGAGATGGTTTTTGTGTTCGGAGTCACCTAGTGCAG | 9180 fluorescence intensity (a.u.)
15 | CTCATCTCACCCGTCACTACTGCACTGCGCACCATTGCCGCGGAGTCACCTAGTGCAG | 8540 fluorescence intensity (a.u.)
16 | AGTATCGGCCTCTTCTTCTTCTGCTTCATGGATTGATCCACGGAGTCACCTAGTGCAG | 9390 fluorescence intensity (a.u.)
17 | CTCGTTTGATCTCTCAGTTGGGAGCATTATTTCTGCGCATCGGAGTCACCTAGTGCAG | 10800 fluorescence intensity (a.u.)
18 | GTTTCCGATCGACCAGATCCGCCCATCACACAGCATCTGTCGGAGTCACCTAGTGCAG | 8440 fluorescence intensity (a.u.)
19 | CTGTCGTGTTTCCTCTGATTAGTTCATACAGCATCTGTTACGGAGTCACCTAGTGCAG | 17600 fluorescence intensity (a.u.)
20 | GATCCATTCGGCGCATTTCATTATATGATTATCCCACACTCGGAGTCACCTAGTGCAG | 10300 fluorescence intensity (a.u.)
21 | GAAAAGCACTCACTCAAGTCTCCATGGCATTTCCTACTTCCGGAGTCACCTAGTGCAG | 11800 fluorescence intensity (a.u.)

Shown with each value named: entries from further up.
CTGCTTCGCCTCTCGTTCCCCAAGGCCCCGAAGCCGCCGGCGGAGTCACCTAGTGCAG
  binding signal: 8350 fluorescence intensity (a.u.)
CTCGTTTGATCTCTCAGTTGGGAGCATTATTTCTGCGCATCGGAGTCACCTAGTGCAG
  binding signal: 10800 fluorescence intensity (a.u.)

Going on with the list:

Row | Sequence | binding signal
22 | GGCTTTGTATTTTGGTGTTGAGTCCCTTCCATACAAGAACCGGAGTCACCTAGTGCAG | 8040 fluorescence intensity (a.u.)
23 | CCTGTGTTTTGCAATTCTCTGTTTTACACTTACATTCCAACGGAGTCACCTAGTGCAG | 8160 fluorescence intensity (a.u.)
24 | ACTAGTACATTGTTAGTCATCCTGGGTTTTTCCTCCAAAACGGAGTCACCTAGTGCAG | 8450 fluorescence intensity (a.u.)
25 | TCCCTTTCTGTTCCGGCCGCCTCGATCGCCCGCTACCCGCCGGAGTCACCTAGTGCAG | 10000 fluorescence intensity (a.u.)
26 | CTTTCTTATTGTCGGCGTTGTCATCCATCCAAAACCTCTACGGAGTCACCTAGTGCAG | 13000 fluorescence intensity (a.u.)
27 | CTCAACGAGTTCTTCCGCCGCACCTCAACGCGTCACCCCTCGGAGTCACCTAGTGCAG | 9170 fluorescence intensity (a.u.)
28 | GAGTCAGACCCACTTGGGCGGGGCGGGGCGCGGCGCGGCGCGGAGTCACCTAGTGCAG | 13600 fluorescence intensity (a.u.)
29 | GCTTCATCGATTCTTGCGTGTCCTTTTGGATTAGTGTGCACGGAGTCACCTAGTGCAG | 9350 fluorescence intensity (a.u.)
30 | GCAAACTTGCAAACCGTTCTTTTTCAGATAACCTTTTTTTCGGAGTCACCTAGTGCAG | 8700 fluorescence intensity (a.u.)
31 | GCTTTCTGGCCTGCGGAACCACGCATTCGGCTACCAGCTCCGGAGTCACCTAGTGCAG | 8120 fluorescence intensity (a.u.)
32 | GCATTTTTTTTCCAAATACTCTTGTTACTCACAGTCTCCGCGGAGTCACCTAGTGCAG | 8760 fluorescence intensity (a.u.)
33 | AGAACTCTACATGTCTCTTAAATGACCATTCCCGTCTAGGCGGAGTCACCTAGTGCAG | 8500 fluorescence intensity (a.u.)
34 | CGGACCCCATACACCTCCGCCCGATTCCCGACGCAAATCCCGGAGTCACCTAGTGCAG | 9260 fluorescence intensity (a.u.)
35 | ACATCCATCCTGGTGAGCACATCCTCCGCCACCGCCGACCCGGAGTCACCTAGTGCAG | 9140 fluorescence intensity (a.u.)
36 | TCCCCTTCGCCCTTCGTCGTCGTCGTCGTCGTCGTTCGTCCGGAGTCACCTAGTGCAG | 8050 fluorescence intensity (a.u.)
37 | TGTATGTTGAGCTTTAGGTATTTAATGGGTATTAGCTTTACGGAGTCACCTAGTGCAG | 8090 fluorescence intensity (a.u.)
38 | CTAGCTTCTGTCTTGATTCATTTGCTCATAGGCCTATCTTCGGAGTCACCTAGTGCAG | 12800 fluorescence intensity (a.u.)
39 | AACATCTCTAGTCTTGTAATACTTTATCTCTAATTGTTCACGGAGTCACCTAGTGCAG | 9460 fluorescence intensity (a.u.)
40 | GACCTTTTTACTTACATATTGTTTTTGGCCATAGATTATTCGGAGTCACCTAGTGCAG | 9630 fluorescence intensity (a.u.)
41 | ACAAACGTTTGACCATTCGTTTTATTCAAAATTTTTGTGCCGGAGTCACCTAGTGCAG | 8960 fluorescence intensity (a.u.)
42 | GGGTGGGAGGGATTCGTATGGCGTCGCCGGAGGAGAGCGCCGGAGTCACCTAGTGCAG | 10100 fluorescence intensity (a.u.)
